{"sequences": {"note": "Protein sequences, listed by entry. Tags and fused reporters are not part of them. Lines headed by an entry give the natural chain unless they say otherwise; changes in a name come on top.", "UniProt P26039": "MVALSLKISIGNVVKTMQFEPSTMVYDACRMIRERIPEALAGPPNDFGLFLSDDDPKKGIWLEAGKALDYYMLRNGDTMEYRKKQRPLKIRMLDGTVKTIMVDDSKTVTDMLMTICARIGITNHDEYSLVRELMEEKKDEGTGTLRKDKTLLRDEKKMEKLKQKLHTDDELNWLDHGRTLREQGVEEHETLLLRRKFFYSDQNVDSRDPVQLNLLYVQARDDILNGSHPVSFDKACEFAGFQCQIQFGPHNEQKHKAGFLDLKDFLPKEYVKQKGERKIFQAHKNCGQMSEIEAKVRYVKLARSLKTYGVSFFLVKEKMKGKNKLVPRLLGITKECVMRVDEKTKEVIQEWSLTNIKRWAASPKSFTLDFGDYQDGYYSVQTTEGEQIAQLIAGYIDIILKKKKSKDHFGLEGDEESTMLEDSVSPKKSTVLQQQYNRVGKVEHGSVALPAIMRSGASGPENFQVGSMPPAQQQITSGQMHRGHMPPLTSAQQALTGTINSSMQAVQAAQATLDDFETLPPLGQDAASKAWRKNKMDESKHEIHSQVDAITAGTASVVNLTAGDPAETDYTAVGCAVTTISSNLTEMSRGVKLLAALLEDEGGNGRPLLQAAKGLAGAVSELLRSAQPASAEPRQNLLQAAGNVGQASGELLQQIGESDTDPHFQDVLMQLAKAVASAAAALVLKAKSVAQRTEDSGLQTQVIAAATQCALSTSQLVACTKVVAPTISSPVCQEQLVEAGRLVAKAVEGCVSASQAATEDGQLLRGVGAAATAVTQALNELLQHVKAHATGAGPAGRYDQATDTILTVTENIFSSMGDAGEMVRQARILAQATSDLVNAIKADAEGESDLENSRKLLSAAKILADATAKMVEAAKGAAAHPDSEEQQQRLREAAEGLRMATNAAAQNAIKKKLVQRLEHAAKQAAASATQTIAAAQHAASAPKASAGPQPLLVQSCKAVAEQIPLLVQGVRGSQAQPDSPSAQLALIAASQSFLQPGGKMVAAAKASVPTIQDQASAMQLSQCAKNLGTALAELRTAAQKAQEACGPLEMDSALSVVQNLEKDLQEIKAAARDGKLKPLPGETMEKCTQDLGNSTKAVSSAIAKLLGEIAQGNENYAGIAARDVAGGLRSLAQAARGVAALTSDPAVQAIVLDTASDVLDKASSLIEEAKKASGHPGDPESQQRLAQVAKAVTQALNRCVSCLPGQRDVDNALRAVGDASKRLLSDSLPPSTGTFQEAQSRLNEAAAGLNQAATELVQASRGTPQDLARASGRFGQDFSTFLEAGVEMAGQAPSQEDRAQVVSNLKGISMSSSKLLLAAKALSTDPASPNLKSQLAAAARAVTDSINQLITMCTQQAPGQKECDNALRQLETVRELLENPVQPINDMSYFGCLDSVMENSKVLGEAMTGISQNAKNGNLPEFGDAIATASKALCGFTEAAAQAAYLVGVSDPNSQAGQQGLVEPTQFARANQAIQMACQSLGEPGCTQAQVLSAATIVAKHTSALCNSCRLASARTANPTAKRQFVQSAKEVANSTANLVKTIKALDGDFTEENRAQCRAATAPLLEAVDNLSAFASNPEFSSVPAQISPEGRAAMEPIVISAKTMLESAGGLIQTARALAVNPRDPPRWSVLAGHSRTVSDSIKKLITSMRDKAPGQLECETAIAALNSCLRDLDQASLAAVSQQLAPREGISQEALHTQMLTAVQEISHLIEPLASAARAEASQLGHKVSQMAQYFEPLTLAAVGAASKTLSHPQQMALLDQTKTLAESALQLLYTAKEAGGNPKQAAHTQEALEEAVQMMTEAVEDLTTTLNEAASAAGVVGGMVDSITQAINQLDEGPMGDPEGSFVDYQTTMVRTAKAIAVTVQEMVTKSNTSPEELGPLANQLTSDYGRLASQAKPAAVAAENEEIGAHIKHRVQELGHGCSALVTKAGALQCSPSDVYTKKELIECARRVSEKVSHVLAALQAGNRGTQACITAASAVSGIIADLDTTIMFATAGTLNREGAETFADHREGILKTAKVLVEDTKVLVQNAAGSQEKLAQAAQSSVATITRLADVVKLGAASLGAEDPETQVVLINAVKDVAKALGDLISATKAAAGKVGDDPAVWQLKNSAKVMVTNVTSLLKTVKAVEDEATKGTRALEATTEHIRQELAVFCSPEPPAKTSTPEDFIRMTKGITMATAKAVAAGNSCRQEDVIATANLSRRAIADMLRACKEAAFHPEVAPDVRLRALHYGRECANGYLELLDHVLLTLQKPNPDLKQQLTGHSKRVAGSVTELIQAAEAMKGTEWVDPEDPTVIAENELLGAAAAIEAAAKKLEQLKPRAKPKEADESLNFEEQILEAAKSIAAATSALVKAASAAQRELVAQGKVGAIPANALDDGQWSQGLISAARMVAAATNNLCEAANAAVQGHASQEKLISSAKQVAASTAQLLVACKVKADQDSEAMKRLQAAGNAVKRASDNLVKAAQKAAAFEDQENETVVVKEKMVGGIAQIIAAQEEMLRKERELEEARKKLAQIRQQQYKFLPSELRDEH"}, "source": "paper doi:10.1101/2023.09.03.556084", "test_in_all_cases": "co-IP", "key": {"[1]": {"target": "GFP-tagged talin 1 R1R2 domain, wild type (mouse) (UniProt P26039)"}, "[2]": {"target": "GFP-tagged talin 1 R1 domain, wild type (mouse) (UniProt P26039)"}, "[3]": {"target": "GFP-tagged talin 1 R2 domain, wild type (mouse) (UniProt P26039)"}}, "note": "These are yes or no findings as the source states them, for the method shown. In cells and extracts the contact can be indirect. Binding can be weak; no strength is given.", "data": [{"substance": "Flag-tagged ARPC5L (from UniProt Q9BPX5 1-153)", "values": [{"measurement": "binding", "setting": "[1]", "value": "binds weakly"}, {"measurement": "binding", "setting": "[2]", "value": "binds weakly"}, {"measurement": "binding", "setting": "[3]", "value": "binds"}]}]}
